# In PubChem BioAssay AID1508600 (Functional Genomics Laboratory (NCATS/FGL), 2020):
# Screen size: about 53,000 sequences; about 3,700 (7%) were called active.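 The calls were made as follows: active = gene knockdowns whose robust z-score for IL-1 alpha signal is at least 2 or at most -2, so actives lie on both sides; inactive = the rest.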 The list shows a part of the results.
# Assay: Components of the Cytosolic LPS Sensing Pathway: Gene Identification via Genome-wide siRNA Screen
# Details: RAW264.7 macrophages, IL-1a HTRF, actives lie on both sides, screened at 100 nM (by protocol), cells primed 5 h with Pam3CSK4 first
# Source text: Non-canonical inflammasome activation by cytosolic LPS is a critical component of the host response to Gram-negative bacterial infection, however we lack a comprehensive understanding of the cellular processes that control this pathway. Here we describe a genome-wide siRNA screen to identify genes regulating the mouse macrophage IL-1 alpha response to cytosolic LPS.
# RAW264.7 cells were maintained in complete DMEM media, comprising DMEM with 4.5 g/L glucose, 10% FBS (Gemini Bio-Products, West Sacramento, CA), 2 mM Glutamine (Lonza) and 20 mM HEPES (Lonza), hereafter complete DMEM.
# The RNAi screen was conducted in 384-well format using the Ambion Silencer Mouse Genome siRNA Library (#4391425), which consists of three unique, nonoverlapping, nonpooled siRNAs for each of 17,000 gene targets. siRNA reagents ([…]) were stamped into 384-well white flat-bottom microplates (Corning, 3570) using a Velocity11 VPrep liquid handling system (Agilent) integrated into a BioCel robotic platform (Agilent) in columns 1-22, leaving columns 23-24 empty for negative (Ambion, Negative control #1) and positive (mouse Casp4) controls, respectively. The median value of each plate's negative control column was used to normalize sample wells, and the positive control was used to assess transfection efficiency and assay performance.
# Lipofectamine RNAiMAX Transfection Reagent ([…]; Invitrogen) was added in […] serum-free, antibiotic-free media to plate wells using a Thermo Scientific Matrix WellMate and Microplate Stacker. Plates were incubated for 45 min at room temperature to allow for the sufficient formation of siRNA-lipid complexes. Cells were seeded at a density of 1x10^4 cells per well in 20 microL media containing 20% (vol/vol) FBS without antibiotics. The final concentration of siRNA in each well was 100 nM. Cells were cultured for 48h at 37 degrees C in 5% CO2 before addition of […] of TLR ligand Pam3CSK4 for 5 hours. The medium was then removed, replaced with […] growth media and cell were transfected with […] of LipidA and TransIT-TKO (Mirus) for 24 hour. At the end of the LipidA treatment, […] of supernatant was transferred to a 384 Greiner Bio-one non-binding low volume plate and […] of IL-1a HTRF reagent (Cisbio, 62MIL1APEH) was added and incubated at room temperature overnight. The plates were read on an EnVision plate reader (PerkinElmer). Cell viability was measured by adding 20ul Cell Titer Glo to the original plate and running a luminescence read on the EnVision. The quantified IL-1a signal for each siRNA gene-targeted well was divided by the median of the negative control wells and multiplied by 100 to achieve a negative control normalized value for each well/siRNA. This normalized value was then used to generate a robust z-score by first taking the log of each value and then by subtracting the median and dividing by the […].
row,Sequence,z-score
1,GGGACCGUGAAGAAAAUUUTT against Tmed11,inactive: -0.926
2,CCAAUCUGAAGUGCUACUATT against Trim42,inactive: 0.368
3,GGUGUCAUCUUCCUGCUUGTT against Olfr93,inactive: 0.476
4,GGUUAUUUCUAAAGUUCCUTT against Sphk1,inactive: -0.0567
5,GGAAGUGAGGGAAGAAAUUTT against Zcchc9,inactive: 0.0628
6,GGAUCUGGUACCCACCCAATT against Jak2,inactive: -1.63
7,GGGUCAUGAAAAAACAUUATT against Cyb5b,inactive: 0.915
8,GGUGGUCUGAGAAAUACUCTT against Czib,active: 2.06
9,GGGAGUAAAGAAAAUGUUATT against Atxn2,inactive: -0.112
10,GGUGUGAAAAGAGGAGGAGTT against Zfp65,inactive: -0.477
11,CGAACAAGCCAUGUUUACATT against Gvin1,inactive: 0.811
12,GGCAACACAAGUGAGAAUGTT against Zfp768,inactive: -1.23
13,GCCCUUAACAAGAAUGAGUTT against Six6,inactive: -0.73
14,CCAAAGUCAUCGAUGCAAATT against Cst6,inactive: 0.493
15,GCAUUUUGAAUCACUUGAATT against Brca2,inactive: 0.314
16,GGGAAAAGAAAAGAGGACATT against Serf1,inactive: -1.28
17,CCUUCCAAGAUCAAUAAGATT against Epb42,inactive: 1.2
18,GGUUAUCCAACCUAGAAUATT against Tmlhe,inactive: 0.74
19,CGAGAGUGAUGCGCAUUUCTT against Sf3b5,active: -3.04
20,CCCGGAGUACAGUGACUUUTT against Htra1,inactive: 0.545
21,GGUGAGAUCUCAAUGGAAATT against Mfap1a,inactive: -0.471
22,GCCACUGGGACCUAUUGAUTT against Glyctk,inactive: -0.141

row,Sequence,z-score
1,GCUGGAUACUAAUUGCUUATT against Parva,inactive: 1.27
2,CCAUUCUCUACAUUCACUCTT against Olfr944,inactive: -1.24
3,GGGUUACGUACAACACAUUTT against Mtf1,inactive: 1.66
4,CGCCAUAGUUGGUUUUGUUTT against Scamp4,inactive: 1.2
5,GCUUUUCAGAGCGAUCUCATT against Vps52,inactive: -1.12
6,GGACAUCCUUCACCUCACATT against Ptges,inactive: -1.97
7,GGAAGAAAAUCUGAAGCUATT against Scoc,inactive: -0.364
8,GCUGCAGGAUAUCGCAAAGTT against Olfr1454,inactive: -0.177
9,GGCUGUGAAAGCAUAUGUGTT against Foxp2,inactive: -0.852
10,GCUUUACCUGCAUAUUCCATT against Nradd,active: -2.04
11,GGUAUUCGAGCAGAUAUAUTT against Apol10b,inactive: 0.0735
12,GGUCUUCUAUCUGAAAAUGTT against Ywhaq,inactive: 0.344
13,GUUUGAUGAUCACUGGGUCTT against Aqp2,inactive: 1.6
14,GCACGACGAGACAUUUUUGTT against Trmt112,inactive: 0.99
15,GGUAUCCAUACUUCCACCCTT against 4930474N05Rik,inactive: 0.0659
16,ACUGUUGCAGCCUCUCUCATT against 1700029I15Rik,inactive: -0.827
17,CCUGUAAUGAGUAUGACAUTT against Commd10,inactive: 0.397
18,GCAUCUAUCAAUAAGGAGUTT against Adgrl1,inactive: 0.137
19,CAUUGAAUUCCUGCUCUCCTT against Defa-rs2,inactive: 0.227
20,GCUAUACACUUACUAGAAUTT against Adgrf1,inactive: 1.55
21,GGUUACGUGAGGAUAAAAUTT against Slc38a8,inactive: -0.91
22,GGUUCCAUAGCAGACAAAATT against Mrpl24,inactive: 0.513

row,Sequence,z-score
1,GGAAAAAAUGGAACCAUUGTT against Rpa3,inactive: 0.342
2,GCAUAAAUUUCAAGAGCGCTT against Gigyf1,inactive: -0.243
3,GGAGCAGCUAGACUUCUUUTT against Abhd8,inactive: -0.434
4,GCAAAACACACUGAUGGUGTT against Stx16,inactive: 0.835
5,CCGUACAAGAAAAAGUCGUTT against Srrm1,inactive: 1.17
6,GCGAAAACUUGGGAUAUUUTT against Mtmr1,inactive: -0.689
7,GGAAAAUGUUCAUCUCUCATT against Mboat2,inactive: -0.25
8,GGAAAGAUCUACGAGAUCUTT against Unc5a,inactive: 1.04
9,GGACAAGAGAACAACUAGUTT against Mrtfb,inactive: 0.0162
10,CGCAUCAUAAUGAUUGUGATT against Matn2,inactive: -0.269
11,GGGAUACGUUAAUUGUAACTT against Slc6a5,inactive: 0.157
12,GGAGUCGAGAGAGCAUUGGTT against Slc30a7,inactive: -0.48
13,CGGGAGAAAAUUUUAAAGGTT against Qsox2,inactive: 0.109
14,GGAGAUGGCACAGUCAGUCTT against Slc22a8,inactive: -0.338
15,CCUCCCAGUACACUUGAAATT against Cox7a1,inactive: 0.0752
16,GCCUCGUUGACUCCACUAUTT against Rab3ip,inactive: -0.0482
17,GCAUUGGACCAGUCCAGAUTT against Nr6a1,inactive: 0.638
18,GGUAUACCAUUCUCAUGAGTT against Olfr332,inactive: -0.802
19,GCCCAAAAGUGGUUUCCAATT against Rab11fip2,inactive: 1
20,GGAGCAAGAUCAAAUAUGATT against Cflar,inactive: -1.08
21,GUCCUGCUUUCUCUCAUCUTT against Olfr686,inactive: 1.14
22,CCUGAUACCACGACAAGAATT against Cd55b,inactive: -0.741

row,Sequence,z-score
1,GCCAGAGACAAGUAUCAGCTT against Egln2,inactive: 0.989
2,GCCGUGGAUCGAAUAAUUCTT against Coq7,inactive: -1.03
3,GGACAGAUAGUCCUUCGCUTT against Slc7a8,inactive: -0.778
4,GCAUCAUUAUCUUACCAACTT against Olfr826,inactive: -0.994
5,GGCAUAGCAUGAAUGGACGTT against Cript,inactive: -0.302
6,GGUCUACCAUUUCACCUUGTT against Cops4,inactive: 1.19
7,CCCUUCUUUCAAGAAUCUUTT against Olfr325,inactive: 0.293
8,CCAAGUUGAGAAAUUUCUGTT against Cndp1,inactive: -0.127
9,GGAACUCGGAAUUUCUGCCTT against Csf2,inactive: 0.181
10,CGUGCACUGACCAACCAUATT against Dcxr,inactive: 0.055
11,GGUCUUACCAACAGAACCCTT against Rad51ap1,inactive: 1
12,CCCUUAAUGUUUCUAUGGCTT against Klf5,inactive: -0.523
13,GGUGACUGGUUUGUUGCUUTT against Pstk,inactive: -1.39
14,CCAGCAAUGUACCAGUUCATT against Micos13,active: -2.02
15,GGAAGUUUUGCUAUUACACTT against Ubap1,inactive: 1.85
16,CCUAUGUCAAAAAGGUUCGTT against Slc4a2,inactive: 1.19
17,GGAAAACGGAGAUUUGGAGTT against Ess2,inactive: 0.649
18,GGAUCAAUGUGGUACCUAUTT against Sf3a1,active: -2.79
19,GGAAAACCUAAGGUUUAAUTT against Marchf10,inactive: 1.05
20,GGGACAUCAUGUGAAGGACTT against Timm50,inactive: -1.83
21,GCCUUUUAUUUGACUCAUATT against Zfp346,inactive: -0.511
22,GCACAUUCAUAGGAGUACCTT against Vmn1r237,inactive: 0.371

# Nothing new here: entries from further up.
row,Sequence,z-score
16,GCCUCGUUGACUCCACUAUTT against Rab3ip,inactive: -0.0482
17,GCAUUGGACCAGUCCAGAUTT against Nr6a1,inactive: 0.638
18,GGUAUACCAUUCUCAUGAGTT against Olfr332,inactive: -0.802
19,GCCCAAAAGUGGUUUCCAATT against Rab11fip2,inactive: 1
20,GGAGCAAGAUCAAAUAUGATT against Cflar,inactive: -1.08
21,GUCCUGCUUUCUCUCAUCUTT against Olfr686,inactive: 1.14
22,CCUGAUACCACGACAAGAATT against Cd55b,inactive: -0.741
1,GCCAGAGACAAGUAUCAGCTT against Egln2,inactive: 0.989
2,GCCGUGGAUCGAAUAAUUCTT against Coq7,inactive: -1.03
3,GGACAGAUAGUCCUUCGCUTT against Slc7a8,inactive: -0.778
4,GCAUCAUUAUCUUACCAACTT against Olfr826,inactive: -0.994
5,GGCAUAGCAUGAAUGGACGTT against Cript,inactive: -0.302
6,GGUCUACCAUUUCACCUUGTT against Cops4,inactive: 1.19
7,CCCUUCUUUCAAGAAUCUUTT against Olfr325,inactive: 0.293
8,CCAAGUUGAGAAAUUUCUGTT against Cndp1,inactive: -0.127
9,GGAACUCGGAAUUUCUGCCTT against Csf2,inactive: 0.181
10,CGUGCACUGACCAACCAUATT against Dcxr,inactive: 0.055
11,GGUCUUACCAACAGAACCCTT against Rad51ap1,inactive: 1
12,CCCUUAAUGUUUCUAUGGCTT against Klf5,inactive: -0.523
13,GGUGACUGGUUUGUUGCUUTT against Pstk,inactive: -1.39
14,CCAGCAAUGUACCAGUUCATT against Micos13,active: -2.02
15,GGAAGUUUUGCUAUUACACTT against Ubap1,inactive: 1.85
16,CCUAUGUCAAAAAGGUUCGTT against Slc4a2,inactive: 1.19
17,GGAAAACGGAGAUUUGGAGTT against Ess2,inactive: 0.649
18,GGAUCAAUGUGGUACCUAUTT against Sf3a1,active: -2.79
19,GGAAAACCUAAGGUUUAAUTT against Marchf10,inactive: 1.05
20,GGGACAUCAUGUGAAGGACTT against Timm50,inactive: -1.83
21,GCCUUUUAUUUGACUCAUATT against Zfp346,inactive: -0.511

# (next part)

row,Sequence,z-score
1,GGAAGACACUCCUCUGCUCTT against Oca2,inactive: 1.63
2,GGUCAAAUGAGCAGAAUAATT against Foxi1,inactive: -0.256
3,GGUUCAACAUGAAAAUGAUTT against Lingo2,inactive: -0.251
4,GGAUUUACAGAAGUGAAGGTT against Cald1,inactive: 0.547
5,GGUAAUACCACCUCACCUUTT against Fam214b,inactive: -0.0713
6,CCCUUGUCUCAUGUCAAGGTT against Eras,inactive: -1.48
7,AAAAGAUGCAUGUCUCCUUTT against Hbq1a,inactive: -1.76
8,GGCGCAGUACUAAAGACAGTT against Pbld2,inactive: 1.55
9,CGUAUCAAACAGGAAAUGGTT against Arid5b,inactive: -0.0746
10,GGUAAUUGUUGUUUUUGGGTT against Npy4r,inactive: 0.133
11,GAAACUAUGGCUGAAAAUGTT against Klk1,inactive: -0.838
12,GGAGCAAUUCAAAUUCAAATT against Psme3ip1,inactive: 1.26
13,CCUGCAUGACGGAAUUCUUTT against Acacb,inactive: 1.19
14,GGCUGUGAAGUCUAAAACUTT against Thbs4,inactive: 0.703
15,CUCUAAGAAACAUGGUGGCTT against Sod1,inactive: -0.304
16,GGUUUAUGAGCUCUACGCCTT against Tmem11,inactive: -0.843
17,CCAUUGACUUACUUCUAAGTT against Gimap6,inactive: 0.58
18,CCUUCCAACUCUUCUCCUCTT against H2-T3,inactive: 0.915
19,CGAGAUGAAAUAUACAGAUTT against Trat1,inactive: 1.12
